The other results are listed elsewhere or left out.
Assays:
Assay in all cases: protein microarray (ProtoArray v5.0), streptavidin-Alexa Fluor 647
Conditions in all cases: 3'-biotin; 20 mM Tris (pH 7.5), 5 mM MgCl2, 100 mM KCl, 0.1% Tween-20, A/T-rich and random oligonucleotide blockers; temperature not stated; high values mean tight binding
[1] = system: TXNDC1 (human)
[2] = system: TXNDC9 (human)
[3] = system: TXNL4B (human)
[4] = system: Tachykinin-3 (human)
[5] = system: Taste receptor type 2 member 60 (human)
[6] = system: Tesmin (human)
[7] = system: Tetratricopeptide repeat protein 1 (human)
[8] = system: Thymosin beta-4, Y-chromosomal (human)
[9] = system: Thyroid receptor-interacting protein 11 (human)
[10] = system: Trafficking protein particle complex subunit 6A (human)
[11] = system: Transaldolase (human)
[12] = system: Transcription initiation factor TFIID subunit 8 (human)
[13] = system: Transmembrane 4 L6 family member 1 (human)
[14] = system: Transmembrane protein 107 (human)
[15] = system: Transmembrane protein 156 (human)
[16] = system: Transmembrane protein 203 (human)
[17] = system: Transmembrane protein 43 (human)
[18] = system: Transmembrane protein 86B (human)
[19] = system: Tubulin-specific chaperone D (human)
[20] = system: Tumor protein D52 (human)

GGTGACAGGGGTATGGGGAGGGG [G4-2 biotinylated (Ct1)]
binding signal [1]: -0.375 z-score
binding signal [2]: -0.395 z-score
binding signal [3]: -0.377 z-score
binding signal [4]: -0.38 z-score
binding signal [5]: -0.367 z-score
binding signal [6]: -0.388 z-score
binding signal [7]: -0.388 z-score
binding signal [8]: -0.392 z-score
binding signal [9]: -0.385 z-score
binding signal [10]: -0.375 z-score
binding signal [11]: -0.394 z-score
binding signal [12]: -0.385 z-score
binding signal [13]: -0.359 z-score
binding signal [14]: -0.385 z-score
binding signal [15]: -0.393 z-score
binding signal [16]: -0.392 z-score
binding signal [17]: -0.376 z-score
binding signal [18]: -0.373 z-score
binding signal [19]: -0.392 z-score
binding signal [20]: -0.399 z-score
